Experimental data from doi:10.1101/2024.05.17.594698.
These are yes or no findings as the source states them, for the method shown. Binding seen in cells or lysates may run through a third protein. Binding calls can cover weak binding; strength is not graded here.

target: T1, sestrin 2 (endogenous) (human (endogenous in CD4+ T cells)) (UniProt P58004); assay: co-IP
T1 sequence: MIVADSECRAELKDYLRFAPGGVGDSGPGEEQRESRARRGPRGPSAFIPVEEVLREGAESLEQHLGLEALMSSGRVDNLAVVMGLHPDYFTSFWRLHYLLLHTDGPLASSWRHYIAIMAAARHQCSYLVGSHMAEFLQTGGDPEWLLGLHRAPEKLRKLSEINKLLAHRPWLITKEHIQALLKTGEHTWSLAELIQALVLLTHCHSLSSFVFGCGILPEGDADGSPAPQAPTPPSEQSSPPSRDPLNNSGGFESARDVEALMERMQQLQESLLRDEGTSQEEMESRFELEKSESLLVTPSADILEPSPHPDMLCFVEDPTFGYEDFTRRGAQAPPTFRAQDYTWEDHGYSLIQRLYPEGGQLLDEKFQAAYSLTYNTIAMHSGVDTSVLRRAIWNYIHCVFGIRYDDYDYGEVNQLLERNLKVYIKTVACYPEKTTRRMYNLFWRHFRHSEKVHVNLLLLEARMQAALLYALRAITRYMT

Row | binding | Substance
1 | binds | ERK MAPK (human (endogenous in CD4+ T cells)) (enzyme)
2 | binds | JNK MAPK (human (endogenous in CD4+ T cells)) (enzyme)
3 | binds | p38 MAPK (human (endogenous in CD4+ T cells)) (enzyme)
